Results are given in words; binding and its absence hold for the method and conditions named. In cells and extracts the contact can be indirect. Some results given as binding are weak or reduced against the parent protein; the word gives no strength.
Biological target: Period 2 (mouse (endogenous in bone-marrow EPCs)) (UniProt O54943)
Assay: co-IP; lysates of WT mouse EPCs; rabbit anti-per2 or CXCR4 antibody, protein A and G plus-agarose beads; western blot with CXCR4 or per2 antibodies

Sequences of proteins named here, by UniProt entry; tags and fusion partners are left off.
UniProt O54943: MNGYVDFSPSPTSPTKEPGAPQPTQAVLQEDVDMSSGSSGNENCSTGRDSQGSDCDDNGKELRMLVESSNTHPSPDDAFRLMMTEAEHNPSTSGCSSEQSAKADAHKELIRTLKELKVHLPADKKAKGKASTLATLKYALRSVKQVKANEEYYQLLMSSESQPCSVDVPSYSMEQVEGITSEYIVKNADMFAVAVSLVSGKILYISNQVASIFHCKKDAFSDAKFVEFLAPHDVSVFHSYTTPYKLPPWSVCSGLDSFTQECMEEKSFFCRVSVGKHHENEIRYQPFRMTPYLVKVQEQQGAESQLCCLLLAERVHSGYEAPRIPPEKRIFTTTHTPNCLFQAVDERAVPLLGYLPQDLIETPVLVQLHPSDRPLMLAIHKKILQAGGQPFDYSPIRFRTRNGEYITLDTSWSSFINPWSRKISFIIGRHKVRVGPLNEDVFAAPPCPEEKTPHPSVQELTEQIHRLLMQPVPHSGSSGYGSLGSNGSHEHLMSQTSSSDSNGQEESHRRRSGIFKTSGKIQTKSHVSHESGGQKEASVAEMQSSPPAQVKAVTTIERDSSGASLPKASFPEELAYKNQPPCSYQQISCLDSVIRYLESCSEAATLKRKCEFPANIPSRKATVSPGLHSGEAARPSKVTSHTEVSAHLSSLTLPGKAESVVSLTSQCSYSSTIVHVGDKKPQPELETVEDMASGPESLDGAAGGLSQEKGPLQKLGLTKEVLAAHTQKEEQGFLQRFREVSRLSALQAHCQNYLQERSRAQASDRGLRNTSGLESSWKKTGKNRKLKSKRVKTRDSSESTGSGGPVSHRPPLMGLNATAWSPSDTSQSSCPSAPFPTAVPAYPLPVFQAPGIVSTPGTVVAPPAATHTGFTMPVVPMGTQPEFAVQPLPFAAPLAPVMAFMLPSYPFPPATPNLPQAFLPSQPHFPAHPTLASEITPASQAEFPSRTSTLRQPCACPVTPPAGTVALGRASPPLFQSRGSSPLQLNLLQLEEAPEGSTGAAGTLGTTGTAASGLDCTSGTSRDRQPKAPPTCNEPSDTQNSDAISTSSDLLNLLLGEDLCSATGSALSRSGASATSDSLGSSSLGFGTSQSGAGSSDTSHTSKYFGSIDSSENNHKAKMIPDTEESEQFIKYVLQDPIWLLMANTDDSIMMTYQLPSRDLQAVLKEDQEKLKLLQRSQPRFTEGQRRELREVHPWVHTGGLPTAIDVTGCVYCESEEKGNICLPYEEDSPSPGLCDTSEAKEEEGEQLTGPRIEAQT
UniProt P70658: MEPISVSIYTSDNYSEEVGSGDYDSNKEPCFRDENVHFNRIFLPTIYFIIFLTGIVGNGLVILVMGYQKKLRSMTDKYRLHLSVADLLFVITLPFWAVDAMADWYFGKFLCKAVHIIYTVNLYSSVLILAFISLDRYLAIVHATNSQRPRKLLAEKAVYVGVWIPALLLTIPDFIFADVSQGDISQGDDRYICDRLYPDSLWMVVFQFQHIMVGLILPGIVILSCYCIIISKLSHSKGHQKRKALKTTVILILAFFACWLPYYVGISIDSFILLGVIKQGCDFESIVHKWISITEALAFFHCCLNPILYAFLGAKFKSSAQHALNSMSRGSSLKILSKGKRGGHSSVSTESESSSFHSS

## C-X-C chemokine receptor type 4 (from UniProt P70658 1-359)
  binding: binds
